Results: PMC9023290
These are yes or no findings as the source states them, for the method shown. Binding seen in cells or lysates may run through a third protein. Some binding calls cover weakened binding; strength is not graded here. Sequences can lack the tags named with a protein.

Target: T1, SFB-tagged ZMYM2 (human) (UniProt Q9UBW7)
T1 sequence: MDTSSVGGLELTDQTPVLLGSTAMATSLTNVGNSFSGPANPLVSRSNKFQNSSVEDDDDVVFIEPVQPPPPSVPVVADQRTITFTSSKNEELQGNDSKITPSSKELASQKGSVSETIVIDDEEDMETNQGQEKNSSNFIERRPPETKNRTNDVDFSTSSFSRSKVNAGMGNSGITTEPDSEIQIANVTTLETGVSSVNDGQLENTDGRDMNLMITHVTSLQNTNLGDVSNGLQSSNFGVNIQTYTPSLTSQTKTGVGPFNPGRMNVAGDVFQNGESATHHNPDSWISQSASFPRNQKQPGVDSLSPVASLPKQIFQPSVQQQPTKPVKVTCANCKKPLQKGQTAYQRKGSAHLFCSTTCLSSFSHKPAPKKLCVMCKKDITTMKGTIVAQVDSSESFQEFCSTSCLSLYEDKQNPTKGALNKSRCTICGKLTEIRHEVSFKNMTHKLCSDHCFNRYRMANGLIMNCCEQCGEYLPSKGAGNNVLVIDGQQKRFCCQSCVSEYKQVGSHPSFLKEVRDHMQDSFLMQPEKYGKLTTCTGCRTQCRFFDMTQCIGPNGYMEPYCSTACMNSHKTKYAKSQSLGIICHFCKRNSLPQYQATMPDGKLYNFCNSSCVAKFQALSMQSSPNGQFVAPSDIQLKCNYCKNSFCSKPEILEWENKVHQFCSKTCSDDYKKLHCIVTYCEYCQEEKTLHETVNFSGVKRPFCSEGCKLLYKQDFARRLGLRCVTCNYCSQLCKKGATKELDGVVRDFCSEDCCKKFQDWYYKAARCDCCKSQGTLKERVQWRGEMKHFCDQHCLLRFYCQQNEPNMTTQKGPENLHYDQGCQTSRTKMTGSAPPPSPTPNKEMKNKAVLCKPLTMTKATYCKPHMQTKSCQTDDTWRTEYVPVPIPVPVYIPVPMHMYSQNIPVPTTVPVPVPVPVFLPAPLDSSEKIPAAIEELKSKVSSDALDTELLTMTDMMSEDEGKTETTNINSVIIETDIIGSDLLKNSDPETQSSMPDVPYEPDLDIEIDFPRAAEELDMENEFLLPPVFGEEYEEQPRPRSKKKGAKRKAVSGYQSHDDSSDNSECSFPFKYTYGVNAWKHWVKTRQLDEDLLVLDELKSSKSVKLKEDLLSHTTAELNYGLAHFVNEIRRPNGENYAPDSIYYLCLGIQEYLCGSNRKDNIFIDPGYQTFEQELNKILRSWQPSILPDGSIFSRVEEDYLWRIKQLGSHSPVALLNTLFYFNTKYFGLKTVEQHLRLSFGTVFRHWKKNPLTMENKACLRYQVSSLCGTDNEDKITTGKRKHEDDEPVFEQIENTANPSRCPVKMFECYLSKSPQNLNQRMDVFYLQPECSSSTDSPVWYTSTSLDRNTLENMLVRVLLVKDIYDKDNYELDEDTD
Test: co-IP; SFB-ZMYM2 expressed in HEK293T, untreated or IR-treated; precipitation of the SFB-tagged protein; endogenous ZMYM3 detected with a specific antibody; NETN lysis buffer with TurboNuclease

binding: binds
B1: Endogenous ZMYM3 (protein, UniProt Q14202 1-1370)
chain: MDPSDFPSPFDPLTLPEKPLAGDLPVDMEFGEDLLESQTAPTRGWAPPGPSPSSGALDLLDTPAGLEKDPGVLDGATELLGLGGLLYKAPSPPEVDHGPEGTLAWDAGDQTLEPGPGGQTPEVVPPDPGAGANSCSPEGLLEPLAPDSPITLQSPHIEEEETTSIATARRGSPGQEEELPQGQPQSPNAPPSPSVGETLGDGINSSQTKPGGSSPPAHPSLPGDGLTAKASEKPPERKRSERVRRAEPPKPEVVDSTESIPVSDEDSDAMVDDPNDEDFVPFRPRRSPRMSLRSSVSQRAGRSAVGTKMTCAHCRTPLQKGQTAYQRKGLPQLFCSSSCLTTFSKKPSGKKTCTFCKKEIWNTKDSVVAQTGSGGSFHEFCTSVCLSLYEAQQQRPIPQSGDPADATRCSICQKTGEVLHEVSNGSVVHRLCSDSCFSKFRANKGLKTNCCDQCGAYIYTKTGSPGPELLFHEGQQKRFCNTTCLGAYKKKNTRVYPCVWCKTLCKNFEMLSHVDRNGKTSLFCSLCCTTSYKVKQAGLTGPPRPCSFCRRSLSDPCYYNKVDRTVYQFCSPSCWTKFQRTSPEGGIHLSCHYCHSLFSGKPEVLDWQDQVFQFCCRDCCEDFKRLRGVVSQCEHCRQEKLLHEKLRFSGVEKSFCSEGCVLLYKQDFTKKLGLCCITCTYCSQTCQRGVTEQLDGSTWDFCSEDCKSKYLLWYCKAARCHACKRQGKLLETIHWRGQIRHFCNQQCLLRFYSQQNQPNLDTQSGPESLLNSQSPESKPQTPSQTKVENSNTVRTPEENGNLGKIPVKTRSAPTAPTPPPPPPPATPRKNKAAMCKPLMQNRGVSCKVEMKSKGSQTEEWKPQVIVLPIPVPIFVPVPMHLYCQKVPVPFSMPIPVPVPMFLPTTLESTDKIVETIEELKVKIPSNPLEADILAMAEMIAEAEELDKASSDLCDLVSNQSAEGLLEDCDLFGPARDDVLAMAVKMANVLDEPGQDLEADFPKNPLDINPSVDFLFDCGLVGPEDVSTEQDLPRTMRKGQKRLVLSESCSRDSMSSQPSCTGLNYSYGVNAWKCWVQSKYANGETSKGDELRFGPKPMRIKEDILACSAAELNYGLAQFVREITRPNGERYEPDSIYYLCLGIQQYLLENNRMVNIFTDLYYLTFVQELNKSLSTWQPTLLPNNTVFSRVEEEHLWECKQLGVYSPFVLLNTLMFFNTKFFGLQTAEEHMQLSFTNVVRQSRKCTTPRGTTKVVSIRYYAPVRQRKGRDTGPGKRKREDEAPILEQRENRMNPLRCPVKFYEFYLSKCPESLRTRNDVFYLQPERSCIAESPLWYSVIPMDRSMLESMLNRILAVREIYEELGRPGEEDLD
